# Measurements as given in article PMC6933384.
# B1: irisin (ligand, UniProt Q8K4Z2 1-171)
# chain: MQAARGGAGRPGREGRGLERECERSPGPGVAMPPGPCAWPPRAALRLWLGCVCFALVQADSPSAPVNVTVRHLKANSAVVSWDVLEDEVVIGFAISQQKKDVRMLRFIQEVNTTTRSCALWDLEEDTEYIVHVQAISIQGQSPASEPVLFKTPREAEKMASKNKDEVTMKE
# Target: integrin αVβ5 receptor (mouse (endogenous in gut tissue))
# Test: co-IP; mouse gut tissue after gut IR (irisin 250 μg/kg and cilengitide trifluoroacetate 20 mg/kg given iv after reperfusion); immunoprecipitation with mouse anti-integrin alpha V/beta 5 antibody (sc-81632) and Protein A/G PLUS-Agarose; Western blot for irisin, integrin alpha V and integrin beta 5
binder,measurement,value
B1,binding,binds

# Results are given in words; binding and its absence hold for the method and conditions named. Binding seen in cells or lysates may run through a third protein. Binding can be weak; no strength is given.
